From PubChem BioAssay AID540256 (National Center for Advancing Translational Sciences (NCATS), 2011)
Screen size: about 300,000 compounds; about 3,700 (1.2%) were called active. Inconclusive results, whose numbers are uncertain, are shown with a selection of clear calls. Calls come from the whole dose curve; tested in HEK293 cells. Potencies beside an inconclusive call are fits to weak or partial responses and may not hold up.
% is set by controls: 0 for no effect and ±100 for the full control effect; potency is the fitted concentration of half-maximal effect.

Assay: qHTS for Inhibitors of binding or entry into cells for Lassa Virus; note: nearly all actives have a fitted effect of over 50% in size
Conditions: Lassa virus pseudotype entry inhibition, cell reporter; activity change, negative = inhibition: at 37.9 µM (top of the series) unless noted
In the case of `O=C(NCCc1nc2ccccc2[nH]1)c1cc([N+](=O)[O-])cc([N+](=O)[O-])c1`, the “activity change, negative = inhibition” value is reported as inactive: 13.5%.
With `Cc1ccc(-c2cc(C(=O)Nc3cc(C(=O)O)ccc3C)c3ccccc3n2)cc1` the Potency was inconclusive: 20 µM [inhibitor, single point].
With `NC(=O)c1ccccc1OCC(=O)N1CCCc2ccccc21` the “activity change, negative = inhibition” value was inactive: -4.97% [at 46.1 µM].
With `COc1ccc(C(CNC(=O)c2cccc(S(=O)(=O)N3CCCc4ccccc43)c2)N(C)C)cc1` (stereo not given) the Potency was inconclusive: 11.2 µM [inhibitor, partial curve, poor fit].
For `COc1ccc(C(=O)O/N=C(\N)c2ccccc2)cc1`, the Potency was inconclusive: 35.5 µM [inhibitor, single point].
In the case of `CCOC(=O)c1c(NC(=O)c2ccccc2OCC)sc2c1CCC(CC)C2` (stereo not given), the Potency is reported as inconclusive: 5.62 µM [activator, single point].
For `O=C(CSc1nnnn1-c1ccccc1)Nc1ccc(Cl)cn1`, the Potency was inconclusive: 20 µM [inhibitor, partial curve, poor fit].
For `CCN(CC)c1ccc(Nc2nc(Cl)ncc2Br)cc1`, the “activity change, negative = inhibition” value was inactive: -11.1% [at 46.1 µM].
For `COc1ccc(OCC(=O)N2CCN(Cc3cc(=O)n4nc(-c5ccc(OC)cc5)sc4n3)CC2)cc1`, the Potency was inconclusive: 28.2 µM [activator, partial curve, poor fit].
With `O=C(/C=C/c1c(F)cccc1Cl)N1CCc2ccccc2C1` the Potency was inconclusive: 11.2 µM [inhibitor, partial curve].
In the case of `Cc1cccc(OCC(=O)Nc2cccc3cccnc23)c1C`, the “activity change, negative = inhibition” value is reported as inactive: 13.4% [at 46.1 µM].
For `Oc1cccnc1CN1CCCCC1`, the “activity change, negative = inhibition” value was inactive: 4.77% [at 46.1 µM].
For `COc1ccc(S(=O)(=O)NCC(c2ccc(N(C)C)cc2)N2CCc3ccccc32)cc1OC` (stereo not given), the Potency was inconclusive: 2.51 µM [activator, partial curve, poor fit].
In the case of `Cc1cc2nc(-c3cc(N4CCOCC4)ccc3[N+](=O)[O-])ccn2n1`, the “activity change, negative = inhibition” value is reported as inactive: 8.73%.
In the case of `COc1ccc(NC(=O)c2cc(-c3cccc(OC)c3)on2)cc1`, the Potency is reported as inconclusive: 5.62 µM [activator, single point].
In the case of `CCOC(=O)N1CCC(NS(=O)(=O)c2ccc3c(c2)oc(=O)n3C)CC1`, the Potency is reported as inconclusive: 29.1 µM [inhibitor, single point].
In the case of `Cc1cc(C)n(-c2nc(NCC(C)O)c3c4c(sc3n2)CCCC4)n1` (stereo not given), the Potency is reported as inconclusive: 35.5 µM [inhibitor, single point].
For `O=C(Nc1ccc2oc(-c3cccnc3)nc2c1)c1ccc2c(c1)OCCO2`, the “activity change, negative = inhibition” value was inactive: -13.9% [at 46.1 µM].
With `COc1ccccc1N1CCN(C(=O)c2cnn(-c3ccc(F)cc3F)c2C2CCNCC2)CC1` the “activity change, negative = inhibition” value was inactive: 9.36% [at 46.1 µM].
For `CS(=O)(=O)N1CCc2cc(-c3csc(NC(=O)Cc4ccccc4)n3)ccc21`, the Potency was inconclusive: 32.6 µM [inhibitor, single point].
